Results deposited as PubChem BioAssay AID1259308 (NCATS, 2017)

Test: 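Knock-downs that increase output of a recombinant reporter protein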 (primary screen)
Cell system: human HEK293 embryonic kidney cells stably expressing firefly luciferase (HEK-CMV-Luc2-Hygro)
Reagents: single siRNA against human genes, 0.8 pmol siRNA per well
Duration: 72 h
Detection: 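Luciferase light (ONE-Glo) measured on one replicate plate set and viability (CellTiter-Glo) on the other, scaled to a negative control siRNA, with robust z-scores and luciferase per cell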
Scale: total luciferase, z-score and total luciferase, % of control: higher = more reporter protein produced; luciferase per cell, z-score: higher = more reporter output per viable cell; viable cells, % of control: higher = more viable cells
Call rule: 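Active when the median/MAD z-score for overall luciferase is greater than 3; a gene was taken forward for validation with new siRNAs if at least two of its three siRNAs passed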
Meaning of the calls: active = raised luciferase; inactive = no rise
Shown is one part, drawn at random, of about 59,000 reagents. Over the whole deposit, about 1,510 (2.6%) were called active. 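Calls use total luciferase alone and ignore viability, so some active siRNAs may act by altering cell number.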 Reagents against one gene are numbered here.

gene knocked down,siRNA no.,"total luciferase, z-score","total luciferase, % of control","luciferase per cell, z-score","viable cells, % of control",outcome
SLC36A4,1,0.529,92.4,1.07,77.8,inactive
SLC36A4,2,2.61,134,2,88.4,inactive
SLC36A4,3,1.48,111,0.623,106,inactive
"GIMAP2 (GTPase, IMAP family member 2)",1,-0.143,79,0.161,84.7,inactive
"GIMAP2 (GTPase, IMAP family member 2)",2,0.833,98.5,0.566,94.8,inactive
"GIMAP2 (GTPase, IMAP family member 2)",3,-0.128,79.3,-0.091,90.8,inactive
SPARC (secreted protein acidic and cysteine rich),1,-1.04,61.3,-1.03,89.7,inactive
SPARC (secreted protein acidic and cysteine rich),2,-1.97,42.7,-2.2,85.1,inactive
SPARC (secreted protein acidic and cysteine rich),3,4.14,164,2.68,90.7,active
NDST3 (N-deacetylase and N-sulfotransferase 3),1,-0.224,77.4,-0.235,92.1,inactive
NDST3 (N-deacetylase and N-sulfotransferase 3),2,-1.33,55.5,-1.63,95.2,inactive
NDST3 (N-deacetylase and N-sulfotransferase 3),3,0.145,84.8,-0.22,100,inactive
AFMID (arylformamidase),1,-0.318,75.6,-0.0416,85.4,inactive
AFMID (arylformamidase),2,-0.443,73.1,-1.27,114,inactive
AFMID (arylformamidase),3,0.603,93.9,0.393,94.6,inactive
UBE2T (ubiquitin conjugating enzyme E2 T),1,0.233,86.5,0.318,88.9,inactive
UBE2T (ubiquitin conjugating enzyme E2 T),2,-0.388,74.2,0.289,76.8,inactive
UBE2T (ubiquitin conjugating enzyme E2 T),3,-0.448,73,-0.168,85.2,inactive
BRINP2 (BMP/retinoic acid inducible neural specific 2),1,0.121,84.3,-0.305,102,inactive
BRINP2 (BMP/retinoic acid inducible neural specific 2),2,1.74,117,1.86,79.9,inactive
BRINP2 (BMP/retinoic acid inducible neural specific 2),3,-0.525,71.4,-0.9,101,inactive

Sorted by “total luciferase, % of control” (low to high): 5 of the entries above.
gene knocked down,siRNA no.,"total luciferase, z-score","total luciferase, % of control","luciferase per cell, z-score","viable cells, % of control",outcome
AFMID (arylformamidase),2,-0.443,73.1,-1.27,114,inactive
AFMID (arylformamidase),1,-0.318,75.6,-0.0416,85.4,inactive
NDST3 (N-deacetylase and N-sulfotransferase 3),3,0.145,84.8,-0.22,100,inactive
UBE2T (ubiquitin conjugating enzyme E2 T),1,0.233,86.5,0.318,88.9,inactive
AFMID (arylformamidase),3,0.603,93.9,0.393,94.6,inactive

Next results follow.
gene knocked down,siRNA no.,"total luciferase, z-score","total luciferase, % of control","luciferase per cell, z-score","viable cells, % of control",outcome
NR0B1 (nuclear receptor subfamily 0 group B member 1),1,2.18,125,1.59,92.1,inactive
NR0B1 (nuclear receptor subfamily 0 group B member 1),2,-0.898,64,-0.917,91.1,inactive
NR0B1 (nuclear receptor subfamily 0 group B member 1),3,1.21,106,0.617,101,inactive
YBEY (ybeY metalloendoribonuclease),1,0.167,85.2,0.325,87.4,inactive
YBEY (ybeY metalloendoribonuclease),2,1.07,103,0.935,90.2,inactive
YBEY (ybeY metalloendoribonuclease),3,0.541,92.7,0.695,86.2,inactive
OR8B12 (olfactory receptor family 8 subfamily B member 12),1,-1.32,55.6,-1.16,84.4,inactive
OR8B12 (olfactory receptor family 8 subfamily B member 12),2,-1.2,58,-1.72,102,inactive
OR8B12 (olfactory receptor family 8 subfamily B member 12),3,-0.0329,81.2,0.197,86.2,inactive
"RAB1A (RAB1A, member RAS oncogene family)",1,-0.683,68.3,-0.501,87.1,inactive
"RAB1A (RAB1A, member RAS oncogene family)",2,-0.862,64.7,-1.23,100,inactive
"RAB1A (RAB1A, member RAS oncogene family)",3,0.432,90.5,0.0371,100,inactive
LINC00242 (long independently transcribed non-coding RNA 242),1,0.577,93.4,0.589,89.3,inactive
LINC00242 (long independently transcribed non-coding RNA 242),2,-0.261,76.7,-0.401,95.3,inactive
LINC00242 (long independently transcribed non-coding RNA 242),3,1.25,107,1.79,74.3,inactive
SLC26A8,1,0.0131,82.1,-0.341,100,inactive
SLC26A8,2,1.11,104,0.379,105,inactive
SLC26A8,3,-0.484,72.3,-0.346,88.5,inactive
